This test can be described thus: qHTS Assay for Modulators of Lamin A Splicing. The following applies: HeLa LMNA splicing GFP/RFP minigene ratio, 48 h. In outline:
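S3 HeLa cells stably expressing lamin A-EGFP splicing minigene plus DsRed2, 600 cells/well, 48 h compound exposure at 37C. Laser-scanning cytometry; analysed as GFP (500-530 nm)/RFP (575-640 nm) total intensity ratio; 0.5% DMSO vehicle.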

Where [1] appears, read: measured here: GFP splicing reporter channel.
Where [2] appears, read: measured here: RFP viability control channel.

The values below come from PubChem BioAssay AID1487 (National Center for Advancing Translational Sciences (NCATS), 2009).

The other results are listed elsewhere or left out. The main result of the screen is listed elsewhere. These columns were measured beside it and carry no call. Compounds called inactive in the main read-out are mostly missing here. Words in brackets tell the shape of the fitted curve; partial curves, single points and poor fits give uncertain potencies.

In the case of `COc1ccc(C(=O)CC(=O)c2ccc(C(C)(C)C)cc2)cc1`, the AC50 is 0.00112 µM [falling, full curve, poor fit] under setting [1] and 0.0708 µM [falling, full curve, poor fit] under setting [2].

For the molecule `CCOC(=O)CCC(=O)N1CCOCCN(C(=O)CCC(=O)OCC)CCOCC1`, under setting [2], the AC50 is 0.00562 µM [falling, full curve, poor fit]. Consider `O=C(Nc1ccc(Cl)cc1)c1cnn2c1NC(c1ccccc1)=CC2c1ccccc1` (stereo unspecified), for which the AC50 reads like this: under setting [1], 12.6 µM [rising, partial curve, poor fit]; under setting [2], 14.1 µM [rising, partial curve].

For `Oc1c(N=NC(=S)Nc2ccccc2F)c2ccccc2n1Cc1ccc(Cl)cc1`, the AC50 runs as follows: under setting [1], 0.0891 µM [rising, full curve, poor fit]; under setting [2], 12.6 µM [rising, partial curve, poor fit]. Regarding `O=C1C(N2CCOCC2)=C(n2nnc3ccccc32)C(=O)c2ccccc21`, the AC50 is, setting by setting: under setting [1], 35.5 µM [falling, single point]; under setting [2], 35.5 µM [falling, single point]. Turning to `CCOC(=O)c1c(C)oc2c1c(C(c1cccnc1)N1CCOCC1)c(O)c1ccccc12` (stereo unspecified), the AC50 is, setting by setting: under setting [1], 12.6 µM [rising, single point]; under setting [2], 22.4 µM [rising, single point]. For `CCOc1ccc(NC(=S)N2CCN(C/C=C/c3ccccc3)CC2)cc1`, the AC50 under setting [2] is 0.794 µM [falling, full curve, poor fit]. For the molecule `COC(=O)CSC1=C(C#N)C(c2sccc2C)CC(=O)N1` (stereo unspecified), the AC50 under setting [2] was 15.8 µM [rising, partial curve]. Same read-out and setting: for `O=C(NCc1ccccc1)c1ccc(C(=O)N(C2CCCCC2)C2CCCCC2)cc1` the value was 12.6 µM [rising, single point]. With `CN(C)S(=O)(=O)c1ccc(Cl)c(NC(=O)CN2CCc3ccccc3C2)c1`, the AC50 under setting [1] is 0.708 µM [falling, partial curve, poor fit]. In the case of `COc1cc(/C=C/c2ccc3cccc([N+](=O)[O-])c3n2)ccc1OCC(=O)O`, under setting [2], the AC50 was 3.16 µM [rising, partial curve, poor fit]. Still for that read-out and setting: for `O=C(Nc1nccs1)c1c(O)c2cccc3c2n(c1=O)CCC3` the value was 10 µM [rising, partial curve].

Regarding `CC(C)(C)N=C1NN=C(c2cc3ccccc3o2)CS1`, the AC50 under setting [2] is 35.5 µM [rising, single point]. As to `COc1ccc(-c2ccc(SCc3ccccn3)nn2)cc1OC`, under setting [1], the AC50 is 0.447 µM [rising, partial curve, poor fit]. With `COc1ccc2c(c1)C1(C)CC(C)(C)N2C(=O)N1c1ccccc1` (stereo unspecified), the AC50 is, setting by setting: under setting [1], 28.2 µM [rising, single point]; under setting [2], 20 µM [rising, single point]. Take `CC1Sc2n(c3ccccc3[n+]2C)N=C1c1ccccc1` (stereo unspecified): the AC50 under setting [2] was 11.2 µM [rising, partial curve, poor fit]. With `O=C(CSc1nc2ccccc2[nH]1)Nc1nc(-c2ccc(Br)cc2)cs1`, the AC50 under setting [1] was 7.94 µM [rising, partial curve] and the AC50 under setting [2] was 20 µM [rising, single point]. Regarding `COc1ccc(-n2c(COc3ccccc3)nnc2SCC(N)=O)cc1`, the AC50 was 0.708 µM [falling, full curve, poor fit] under setting [1] and 4.47 µM [falling, full curve, poor fit] under setting [2].

As to `O=c1c2[nH]c3ccccc3c2ncn1CCC1=CCCCC1`, under setting [2], the AC50 is 0.1 µM [falling, full curve].

For the molecule `COc1cc(NC(=O)Cn2nnc(-c3ccccc3N)n2)cc(OC)c1`, under setting [2], the AC50 was 8.91 µM [rising, partial curve, poor fit].

Take `Cc1ccc(-c2cc(C(=O)NCc3ccccn3)no2)cc1`: the AC50 under setting [1] is 11.2 µM [rising, partial curve, poor fit].

Consider `COC(=O)CN1C(=S)N(C)C(=O)/C1=C/c1cccs1`, for which the AC50 under setting [1] was 11.2 µM [falling, partial curve]. Same read-out and setting: for `OC(COCc1ccc2c(c1)OCO2)CN1CCC(Cc2ccccc2)CC1` (stereo unspecified) the value was 0.1 µM [rising, full curve, poor fit].

On to `CC(=O)Nc1ccc(OCC(O)Cn2nc(C)c(Br)c2C)cc1` (stereo unspecified), for which, under setting [2], the AC50 is 12.6 µM [rising, partial curve, poor fit].

Turning to `Cc1ccc(-c2nsc(SCC(=O)NCC3CCCO3)n2)cc1` (stereo unspecified), the AC50 under setting [1] is 5.62 µM [rising, single point]. With `Cc1nn(-c2ccccc2)c2sc(C(=O)NNC(=O)COc3cccc4ccccc34)cc12`, the AC50 is, setting by setting: under setting [1], 11.2 µM [falling, partial curve]; under setting [2], 15.8 µM [falling, partial curve].

As for `CCCCCCN1C=CC=C/C1=C/C=C(C#N)C#N`, the AC50 under setting [1] is 11.2 µM [rising, single point].

For `O=C(NC1CCCC1)c1ccc(CSCc2ccccc2F)o1`, the AC50 under setting [2] is 11.2 µM [rising, single point]. Still for that read-out and setting: for `NC(=O)c1ccc(Nc2ccc([N+](=O)[O-])cc2[N+](=O)[O-])cc1` the value was 8.91 µM [falling, partial curve, poor fit]. Regarding `C/C(=N\NC(=S)NCc1ccccc1)c1ccc2ccccc2c1`, the AC50 was 35.5 µM [rising, single point] under setting [1] and 35.5 µM [rising, single point] under setting [2]. On to `O=C(CCl)N1N=C(c2ccco2)CC1c1cccs1` (stereo unspecified), for which the AC50 was 22.4 µM [falling, single point] under setting [1] and 3.98 µM [falling, partial curve] under setting [2]. With `CNS(=O)(=O)c1ccc(NC(=O)C2c3ccccc3Oc3ccccc32)cc1`, under setting [1], the AC50 was 0.126 µM [rising, full curve, poor fit].

In the case of `COc1ccc(-c2cc(CCCC(=O)NCCc3cc(OC)ccc3OC)no2)cc1`, the AC50 under setting [2] is 15.8 µM [rising, partial curve]. The same measure, in the same setting: for `Cc1cccc(/N=C/c2c(O)ccc3oc4c(c23)CCCC4)n1` the value was 20 µM [rising, single point]. As to `CC(=O)N1CCC(N(Cc2ccc(C)o2)C(=O)Nc2ccccc2F)CC1`, the AC50 runs as follows: under setting [1], 35.5 µM [rising, partial curve]; under setting [2], 35.5 µM [rising, partial curve, poor fit]. Take `CN(C)CCNC(=O)/C(=C/c1ccc(-c2ccc(Cl)cc2)o1)NC(=O)c1ccccc1`: the AC50 under setting [1] was 35.5 µM [rising, single point] and the AC50 under setting [2] is 35.5 µM [rising, single point]. `COC(=O)c1ccc(NC(=O)c2c(NCc3cccc(F)c3)sc3c2CCCC3)cc1`: the AC50 is, setting by setting: under setting [1], 1.12 µM [rising, full curve, poor fit]; under setting [2], 14.1 µM [rising, partial curve].

As for `Cc1cccc(N2CCN(S(=O)(=O)c3cc(C(=O)Nc4ccc(Oc5ccccc5)cc4)ccc3F)CC2C)c1` (stereo unspecified), the AC50 under setting [1] was 0.631 µM [falling, full curve]. On the same count and under the same terms, for `COc1ccccc1C(c1c(O)cc(C)n(Cc2ccco2)c1=O)N1CCCCC1` (stereo unspecified) the value was 0.631 µM [rising, partial curve, poor fit]. `COc1cc(CC(=O)OCC(=O)c2ccc3c(c2)OCCO3)cc(OC)c1OC`: the half-maximal activity concentration (AC50) reads like this: under setting [1], 3.16 µM [falling, full curve]; under setting [2], 7.94 µM [falling, partial curve, poor fit]. Regarding `Cc1csc2nc(CNS(=O)(=O)c3ccc(-c4ccccc4)cc3)cn12`, the AC50 was 15.8 µM [rising, partial curve, poor fit] under setting [1] and 17.8 µM [rising, partial curve] under setting [2].

On to `O=C(c1ccccc1)c1cc([N+](=O)[O-])ccc1N1CCCC1`, for which the AC50 was 2.24 µM [rising, full curve] under setting [1] and 17.8 µM [rising, partial curve] under setting [2].

With `OC(CNCC1CCCO1)Cn1c2ccc(Br)cc2c2cc(Br)ccc21` (stereo unspecified), the AC50 was 35.5 µM [falling, single point] under setting [1] and 35.5 µM [falling, single point] under setting [2]. Consider `Cc1ccc(S(=O)(=O)c2cccc(S(=O)(=O)N3CCCC3)c2)cc1S(=O)(=O)N1CCCC1`, for which the AC50 was 5.62 µM [rising, single point] under setting [1] and 4.47 µM [rising, full curve] under setting [2]. For the molecule `OC(CN1C2=NCCN2c2ccccc21)c1ccc2c(c1)OCO2` (stereo unspecified), the AC50 was 12.6 µM [rising, partial curve, poor fit] under setting [1] and 14.1 µM [rising, partial curve] under setting [2]. `Brc1ccccc1OCCOc1cccc2cccnc12`: under setting [2], the AC50 was 31.6 µM [rising, single point]. As for `CCN(CC)c1ccc2cc(-c3nnc(Nc4ccc(C)cc4)s3)c(=O)oc2c1`, the AC50 under setting [1] is 0.447 µM [rising, full curve]. Still for that read-out and setting: for `Cc1cc(C)c(S(=O)(=O)NCc2ccc3c(c2)CCN3C(=O)c2ccccc2)c(C)c1` the value was 35.5 µM [falling, single point].

As for `CCCC1=[N+](CC(=O)c2ccccc2)CCn2cccc21`, the AC50 was 12.6 µM [rising, single point] under setting [1] and 28.2 µM [rising, single point] under setting [2]. `COc1ccc(-c2cc(C(=O)N3CCN(C(c4ccccc4)c4ccccc4)CC3)no2)cc1OC`: the AC50 runs as follows: under setting [1], 7.94 µM [rising, partial curve, poor fit]; under setting [2], 14.1 µM [rising, partial curve, poor fit]. As for `COCCNC(=S)NNC(=O)c1cccs1`, the AC50 under setting [2] was 0.0447 µM [falling, full curve, poor fit].

With `COc1ccc(C(=O)Nc2ccc(S(=O)(=O)Nc3cc(C)nc(C)n3)cc2)cc1OC`, the AC50 under setting [1] was 0.631 µM [falling, partial curve, poor fit].

Turning to `COc1ccc(CN2CCN(Cc3cccc4nonc34)CC2CCO)c(C)c1C` (stereo unspecified), the AC50 under setting [2] is 1.41 µM [falling, full curve, poor fit]. Still for that read-out and setting: for `Cc1c(Br)c(C(=O)NCc2cc3cc(Cl)ccc3[nH]2)nn1C` the value was 12.6 µM [rising, single point].
